# From PubChem BioAssay AID540256 (National Center for Advancing Translational Sciences (NCATS), 2011)
# The campaign covered roughly 300,000 compounds. About 3,700 (1.2%) were called active. Inconclusive means that the source gave no clear call. Such entries were picked first, then a sample of the others. Calls come from the whole dose curve; tested in HEK293 cells. Where the call is inconclusive, the potency comes from a doubtful curve fit.
# Assay: qHTS for Inhibitors of binding or entry into cells for Lassa Virus; note: nearly all actives have a fitted effect of over 50% in size
# Conditions: Lassa virus pseudotype entry inhibition, cell reporter; activity change, negative = inhibition: at 37.9 µM (top of the series) unless noted
# % is set by controls: 0 for no effect and ±100 for the full control effect; potency is the fitted concentration of half-maximal effect.
SMILES,"activity change, negative = inhibition",Potency
Cc1ccc2cc(C=O)c(N3CCOCC3)nc2c1C,inactive: -11.4%,–
COC(=O)Cn1cc(/C=N/NC(=O)COc2cccc3cccnc23)c2ccccc21,inactive: 0.67%,–
COc1cc2c(cc1NC(=O)CSc1nc3ccccc3[nH]1)oc1ccccc12,–,"inconclusive: 0.82 µM [inhibitor, full curve, poor fit]"
COc1ccc(NC(=O)c2ccc3c(c2)OCO3)cc1Cl,–,"inconclusive: 6.31 µM [inhibitor, single point]"
COc1c(C)cccc1C(=O)Nc1cccc2ccc(C)nc12,–,"inconclusive: 31.6 µM [inhibitor, single point]"
COc1ccc(N(C(=O)c2ccco2)C(C(=O)NC2CCCC2)c2cccs2)cc1 (stereo unspecified),–,"inconclusive: 1.78 µM [inhibitor, full curve, poor fit]"
COc1cccc(/C=N/NC(=O)Cn2nc(C)c([N+](=O)[O-])c2C)c1O,–,"inconclusive: 3.16 µM [inhibitor, full curve, poor fit]"
COCCCNC(=O)c1cc(C(=O)c2c(-c3c(Cl)cccc3Cl)noc2C)c[nH]1,–,"inconclusive: 14.1 µM [inhibitor, partial curve, poor fit]"
Cc1ccc(/C=N/Nc2cccc(C(=O)O)c2)s1,–,active: 1.58 µM
Cc1cccc(C(=O)Nc2cccc(-c3ccc4nncn4n3)c2)c1,–,"inconclusive: 17.8 µM [inhibitor, partial curve, poor fit]"
C/C(=C1/SC(N2CC(C)OC(C)C2)=NC1=O)c1ccccc1 (stereo unspecified),–,"inconclusive: 2.59 µM [inhibitor, partial curve, poor fit]"
CCOC(=O)c1cccc(NC(=O)CCn2c(-c3ccc(F)cc3)cc(C(=O)OCC)c2C)c1,–,"inconclusive: 25.1 µM [inhibitor, single point]"
CCOc1cc2c(cc1OCC)-n1cccc1C(c1c(O)cccc1OC)NC2 (stereo unspecified),–,"inconclusive: 10 µM [inhibitor, partial curve, poor fit]"
CCOC(=O)C1(CCOc2ccccc2)CCN(C(=O)c2ccc(-n3cccn3)cc2)CC1,–,"inconclusive: 35.5 µM [inhibitor, single point]"
COc1ccc(NC(=O)CSC2=Nc3ccccc3C3=NC(CCC(=O)NC4CCCCC4)C(=O)N23)cc1 (stereo unspecified),–,"inconclusive: 20 µM [activator, single point]"
CN(C)c1ccc(/C=N/NC(=O)c2ccc3nc[nH]c3c2)cc1,inactive: -17%,–
CSc1nc(-c2ccco2)nn1C(=O)c1cccs1,–,"inconclusive: 14.1 µM [activator, single point]"
CCOC(=O)/C=C1\SCC(=O)N1CC(=O)NCc1ccc(OC)c(OC)c1,inactive: -9.38%,–
O=S(=O)(Cc1ccccc1)NCCc1cccc(Cl)c1,inactive: -6.24% [at 46.1 µM],–
COc1cc2nc(NC(=O)c3ccc(S(=O)(=O)N4CCOCC4)cc3)sc2cc1OC,inactive: -2.06% [at 46.1 µM],–
COCCCNC(=S)N/N=C/c1ccc(OC)c(Br)c1,–,"inconclusive: 10 µM [inhibitor, partial curve]"
COc1ccc(C2SCC(=O)N2c2c(C)n(C)n(-c3ccccc3)c2=O)cc1OC (stereo unspecified),–,"inconclusive: 0.231 µM [inhibitor, partial curve, poor fit]"

SMILES,"activity change, negative = inhibition",Potency
Cc1ccc(C(=O)OCC(=O)N(C)c2ccccc2)cc1C,inactive: -8.81%,–
COc1ccc(CN(C(=O)CSc2nnc(-c3ccc(OC)c(OC)c3)o2)c2ccc(F)cc2)cc1,–,"inconclusive: 10 µM [inhibitor, partial curve, poor fit]"
CC12Cc3cnoc3C=C1CCC1C2CCC2(C)C1CCC2(C)O (stereo unspecified),–,"inconclusive: 11.2 µM [inhibitor, partial curve, poor fit]"
Cc1noc(C)c1C(=O)Nc1ccc2ccccc2c1,–,"inconclusive: 35.5 µM [activator, single point]"
CN(C)CCNC(=O)c1cccc2nc3cccc(F)c3nc12,inactive: -9.3%,–
CCOC(=O)CCNC(=O)c1ccc2nc(C3CCCCC3)oc2c1,inactive: 6.88% [at 46.1 µM],–
CCCN1C(=O)c2ccc(C(=O)NC3=NCCS3)cc2C1=O,inactive: 8.52%,–
CCN(CC)C(=O)CNC(=O)c1nn(-c2ccc(OC)c(Cl)c2)c(=O)c2ccccc12,inactive: 2.85%,–
O=C(COc1cccc(Br)c1)N/N=C1\CCSC1,–,"inconclusive: 7.94 µM [activator, partial curve, poor fit]"
CCOC(=O)c1cc2c(=O)n3ccccc3nc2n(Cc2ccco2)c1=NC(=O)c1cccc(OC)c1,inactive: -7.59%,–
O=[N+]([O-])c1cc(S(=O)(=O)N2CCCCCC2)ccc1Cl,–,"inconclusive: 35.5 µM [inhibitor, partial curve, poor fit]"
NC(=O)c1cc2cc(Cc3ccccc3Cl)ccc2oc1=O,–,"inconclusive: 14.1 µM [inhibitor, single point]"
COc1cccc(CC(=O)OCC(=O)NC2CCCC2)c1,inactive: 4.78%,–
Cc1ccccc1C1CC(=O)Nc2ccc3ccccc3c21 (stereo unspecified),–,"inconclusive: 2.51 µM [inhibitor, single point]"
Cc1cccc(C(=O)NCCc2ccccc2)c1,–,"inconclusive: 0.447 µM [activator, partial curve, poor fit]"
CS(=O)(=O)Nc1ccccn1,–,"inconclusive: 0.0353 µM [activator, full curve, poor fit]"
COc1cc2ccccc2cc1C(=O)Nc1ccc(Cc2ccncc2)cc1,–,"inconclusive: 16.4 µM [inhibitor, partial curve, poor fit]"
CCCCCN(C(=O)CCC(=O)OCc1cccc(C(F)(F)F)c1)c1c(N)n(CCCC)c(=O)[nH]c1=O,–,"inconclusive: 35.5 µM [inhibitor, single point]"
C=CCN1C(=O)CC(C(=O)NC)SC1=Nc1ccc(C(=O)OCC)cc1 (stereo unspecified),–,"inconclusive: 12.6 µM [inhibitor, single point]"
CCOC(=O)C1CCN(C(=O)c2ccc(-n3ccc4ccccc43)s2)CC1,inactive: -4.18% [at 46.1 µM],–
COc1nnc(-c2ccc(N3CCCCC3)c(N)c2)c2ccccc12,–,"inconclusive: 32.6 µM [inhibitor, single point]"
CN(Cc1ccccc1)C(=O)c1ccc2c(c1)N(Cc1ccccc1Cl)C(=O)c1ccccc1S2,–,"inconclusive: 35.5 µM [inhibitor, single point]"

# Shown with bars between the fields: part of the list above
SMILES | activity change, negative = inhibition | Potency
C=CCN1C(=O)CC(C(=O)NC)SC1=Nc1ccc(C(=O)OCC)cc1 (stereo unspecified) | – | inconclusive: 12.6 µM [inhibitor, single point]
CCOC(=O)C1CCN(C(=O)c2ccc(-n3ccc4ccccc43)s2)CC1 | inactive: -4.18% [at 46.1 µM] | –
COc1nnc(-c2ccc(N3CCCCC3)c(N)c2)c2ccccc12 | – | inconclusive: 32.6 µM [inhibitor, single point]

# Further structures

SMILES,"activity change, negative = inhibition",Potency
N#C/C(=C\c1ccc(OCc2ccc(Br)cc2)cc1)C(=O)Nc1cccc(C(=O)O)c1,–,"inconclusive: 0.112 µM [activator, single point]"
Cc1cc(O)c(-c2ccno2)cc1Cl,–,"inconclusive: 1.03 µM [inhibitor, partial curve, poor fit]"
OC(COc1ccc(CNCCc2ccc(C(F)(F)F)cc2)cc1)CN1CCCCC1 (stereo unspecified),–,"inconclusive: 25.1 µM [inhibitor, single point]"
COC(=O)c1c(NC(=O)CSc2ncnc3[nH]ncc23)sc2c1CCC2,–,"inconclusive: 15.8 µM [inhibitor, single point]"
CN(C)S(=O)(=O)c1cccc(-c2nn(-c3ccccc3)cc2/C=C(/C#N)C(=O)NCc2ccco2)c1,–,"inconclusive: 0.501 µM [inhibitor, partial curve, poor fit]"
O=C(NNC(=S)Nc1ccc(Br)cc1)c1cccnc1,inactive: -4.17% [at 46.1 µM],–
COc1ccc(Cc2nnc(SCC(=O)Nc3ccccc3C)n(N)c2=O)cc1,–,"inconclusive: 17.8 µM [inhibitor, single point]"
CC(C)(C)[C@H](N)C(=O)N[C@H]1CCC2C3CC=C4C[C@@H](O)CC[C@]4(C)C3CC[C@@]21C (stereo partly specified),–,"inconclusive: 35.5 µM [inhibitor, single point]"
CCN1C(=O)c2ccccc2S(=O)c2ccc(C(=O)N3CCN(c4cc(Cl)ccc4C)CC3)cc21 (stereo unspecified),–,"inconclusive: 7.08 µM [inhibitor, partial curve, poor fit]"
O=C(Nc1cc(S(=O)(=O)Nc2ccc(Cl)cc2)ccc1O)c1ccc(F)cc1F,–,"inconclusive: 17.8 µM [inhibitor, single point]"
CCCc1ccc(-c2cc(C(=O)N/N=C/c3ccc([N+](=O)[O-])o3)c3ccccc3n2)cc1,–,active: 5.62 µM
CC(=O)N1N=C(c2ccc(C)cc2)OC1c1ccc(C(C)C)cc1 (stereo unspecified),–,"inconclusive: 2.91 µM [activator, partial curve]"
C[C@H]1[C@H](c2ccccc2)Oc2cc(Br)ccc2S(=O)(=O)N1Cc1cccc(F)c1,–,"inconclusive: 0.0499 µM [inhibitor, full curve, poor fit]"
CCNC(=S)NNC(=O)CCn1c2ccccc2c2ccccc21,–,"inconclusive: 2.06 µM [activator, partial curve, poor fit]"
O=C(CCCl)Nc1nc2c(s1)CCc1ccccc1-2,–,"inconclusive: 20 µM [inhibitor, single point]"
OC(CNC1Cc2ccccc2C1)c1ccccc1 (stereo unspecified),–,"inconclusive: 0.251 µM [activator, full curve, poor fit]"
COc1ccc(-c2c3c(=O)n(C)c(=O)n(C)c3c3n2-c2ccccc2NC3c2ccco2)cc1 (stereo unspecified),inactive: -0.166% [at 46.1 µM],–
C#CCNc1ccc2c(c1)OC[C@H](C)NS2(=O)=O,inactive: 13.3% [at 46.1 µM],–
CCN(CC(=O)NCc1ccc(F)cc1)C(=O)/C=C/c1cc(OC)ccc1OC,–,"inconclusive: 28.2 µM [inhibitor, partial curve, poor fit]"
Cc1cc(C)cc(NC(=O)CSc2ccccc2)c1,–,"inconclusive: 35.5 µM [inhibitor, single point]"
Cc1cc(C)c2oc(-c3cccc(NC(=O)COc4ccc([N+](=O)[O-])cc4)c3)nc2c1,–,"inconclusive: 3.98 µM [inhibitor, single point]"
Cc1cc(NC(=O)CSc2ccccn2)no1,–,"inconclusive: 0.259 µM [activator, full curve, poor fit]"
